The test addresses T1, LPHN2-GFP (UniProt O95490).
T1 sequence: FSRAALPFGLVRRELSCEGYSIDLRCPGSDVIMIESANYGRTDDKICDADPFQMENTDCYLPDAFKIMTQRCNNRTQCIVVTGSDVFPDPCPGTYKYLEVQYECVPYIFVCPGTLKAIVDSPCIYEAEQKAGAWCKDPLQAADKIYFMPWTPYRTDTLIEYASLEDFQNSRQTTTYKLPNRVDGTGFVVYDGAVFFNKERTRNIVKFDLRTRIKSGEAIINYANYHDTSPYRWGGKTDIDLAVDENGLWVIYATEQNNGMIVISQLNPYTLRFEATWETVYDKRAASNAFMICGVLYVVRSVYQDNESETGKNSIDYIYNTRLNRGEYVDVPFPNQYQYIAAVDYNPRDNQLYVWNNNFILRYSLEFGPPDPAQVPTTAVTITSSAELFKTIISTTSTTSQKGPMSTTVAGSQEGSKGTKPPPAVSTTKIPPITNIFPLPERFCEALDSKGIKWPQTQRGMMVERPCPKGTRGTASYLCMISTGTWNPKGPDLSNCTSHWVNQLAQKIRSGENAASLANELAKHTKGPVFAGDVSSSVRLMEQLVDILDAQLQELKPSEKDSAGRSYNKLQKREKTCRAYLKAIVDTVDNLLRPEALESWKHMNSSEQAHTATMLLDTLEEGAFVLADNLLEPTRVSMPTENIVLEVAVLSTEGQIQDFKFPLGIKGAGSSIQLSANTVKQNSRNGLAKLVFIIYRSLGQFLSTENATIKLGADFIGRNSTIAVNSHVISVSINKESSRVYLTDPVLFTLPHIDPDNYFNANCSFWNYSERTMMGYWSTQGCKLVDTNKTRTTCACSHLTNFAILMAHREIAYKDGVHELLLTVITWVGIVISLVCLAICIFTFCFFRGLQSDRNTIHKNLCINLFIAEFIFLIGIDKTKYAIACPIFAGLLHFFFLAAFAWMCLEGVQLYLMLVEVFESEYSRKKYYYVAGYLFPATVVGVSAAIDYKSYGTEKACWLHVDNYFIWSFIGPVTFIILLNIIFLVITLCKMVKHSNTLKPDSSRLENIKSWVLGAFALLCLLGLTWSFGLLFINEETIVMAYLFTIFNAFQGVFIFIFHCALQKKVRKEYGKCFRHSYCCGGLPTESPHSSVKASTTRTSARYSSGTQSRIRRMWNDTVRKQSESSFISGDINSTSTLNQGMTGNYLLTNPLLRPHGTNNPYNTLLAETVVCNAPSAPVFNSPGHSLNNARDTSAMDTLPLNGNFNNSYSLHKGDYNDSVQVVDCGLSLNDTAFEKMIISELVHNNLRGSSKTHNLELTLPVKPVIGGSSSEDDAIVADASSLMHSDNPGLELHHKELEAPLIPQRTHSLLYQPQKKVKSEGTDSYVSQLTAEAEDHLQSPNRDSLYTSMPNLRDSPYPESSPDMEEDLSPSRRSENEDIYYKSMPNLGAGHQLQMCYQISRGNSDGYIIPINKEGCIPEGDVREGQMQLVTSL
The experiment in a line: co-IP; LPHN2-GFP with Gα proteins containing internal GluGlu epitope tags.

Among the data in paper PMC11294477 are binding values, retold here.

No constants are given. Whether binding was seen depends on the method and setting. Binding seen in cells or lysates may run through a third protein. A result given as binding can be weak or reduced; the word gives no strength. Tags and fused reporters may be left off the sequences shown.

Consider GluGlu-tagged Gi2 (human), for which the binding entry was “binds”.
